Results: doi:10.1101/2020.08.04.236182
No constants are given. Whether binding was seen depends on the method and setting. Binding seen in cells or lysates may run through a third protein. Some results given as binding are weak or reduced against the parent protein; the word gives no strength.

Target: GRB2 (human (endogenous in HUVEC)), P62993
Assay: co-IP
Conditions: remark: other sources report otherwise

B1: caveolin-1 (Cav1), Q03135 1-178 (protein)
chain: MSGGKYVDSEGHLYTVPIREQGNIYKPNNKAMADELSEKQVYDAHTKEIDLVNRDPKHLNDDVVKIDFEDVIAEPEGTHSFDGIWKASFTTFTVTKYWFYRLLSALFGIPMALIWGIYFAILSFLHIWAVVPCIKSFLIEIQCISRVYSIYVHTVCDPLFEAVGKIFSNVRINLQKEI
binding: binds
